Assay results from article PMC4324493 (BioMed Research International, 2015).

Test: general procedure: Fmoc solid-phase peptide synthesis; rink amide-AM resin; HBTU/DIPEA; DIC/Oxyma pure for DOTA conjugation
Settings: whole synthesis, scale 0.1 mmol

PLPVLTI-GG
final purity (method not given): >99%
